These are yes or no findings as the source states them, for the method shown. Binding seen in cells or lysates may run through a third protein. Some binding calls cover weakened binding; strength is not graded here.
Assays:
[1] = biological target: NF-κB p65 (RELA), human, endogenous in HeLa (human (endogenous in HeLa)) (UniProt Q04206); assay: proximity ligation; modified PLA on fixed HeLa cells with additional permeabilisation (0.005% saponin/0.1% Triton-X, 40% glycerol overnight, 3 freeze and thaw cycles) for nuclear access; used for p65/p50 and for Immuno-PLA (p65/IκBα PLA with p65 immunofluorescence); untreated or IL-1α (10 ng/mL)
[2] = biological target: IκBα (inhibitor of NF-κB alpha), mouse, endogenous in MEFs (mouse (endogenous in MEFs)) (UniProt Q9Z1E3); assay: proximity ligation; in situ PLA (Duolink) on fixed, saponin-permeabilised wild type MEFs, untreated or IL-1α (10 ng/mL) 60 min; antibodies anti-p65 (F-6) and anti-IκBα (E130); controls: p65 -/- MEFs, one or both primary antibodies omitted

Amino acid sequences for entries named in this document (tags omitted). Residues count along the entry.
UniProt Q04206: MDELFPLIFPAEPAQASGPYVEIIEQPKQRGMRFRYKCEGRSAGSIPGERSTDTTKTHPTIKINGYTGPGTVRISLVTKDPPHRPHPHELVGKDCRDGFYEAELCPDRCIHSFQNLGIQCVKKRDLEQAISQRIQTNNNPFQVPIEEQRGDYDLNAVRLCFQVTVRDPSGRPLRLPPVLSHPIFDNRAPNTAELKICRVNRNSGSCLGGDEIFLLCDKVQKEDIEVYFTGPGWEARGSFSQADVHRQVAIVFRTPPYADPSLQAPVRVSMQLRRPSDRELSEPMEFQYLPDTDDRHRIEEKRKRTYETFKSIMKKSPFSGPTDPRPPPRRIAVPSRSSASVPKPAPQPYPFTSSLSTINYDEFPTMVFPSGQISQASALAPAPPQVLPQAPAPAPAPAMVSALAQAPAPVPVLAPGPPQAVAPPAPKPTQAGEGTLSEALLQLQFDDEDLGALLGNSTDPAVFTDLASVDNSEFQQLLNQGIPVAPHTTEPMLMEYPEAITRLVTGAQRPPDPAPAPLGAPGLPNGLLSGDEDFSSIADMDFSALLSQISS
UniProt Q9Z1E3: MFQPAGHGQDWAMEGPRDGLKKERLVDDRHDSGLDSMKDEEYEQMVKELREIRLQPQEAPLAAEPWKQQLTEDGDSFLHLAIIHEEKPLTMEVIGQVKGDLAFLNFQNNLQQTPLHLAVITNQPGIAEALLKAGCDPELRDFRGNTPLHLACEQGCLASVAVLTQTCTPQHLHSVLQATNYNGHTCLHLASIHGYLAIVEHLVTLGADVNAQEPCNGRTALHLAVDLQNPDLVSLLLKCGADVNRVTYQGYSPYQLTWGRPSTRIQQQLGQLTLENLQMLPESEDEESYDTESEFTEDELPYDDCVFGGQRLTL
UniProt P19838, residues 1-433: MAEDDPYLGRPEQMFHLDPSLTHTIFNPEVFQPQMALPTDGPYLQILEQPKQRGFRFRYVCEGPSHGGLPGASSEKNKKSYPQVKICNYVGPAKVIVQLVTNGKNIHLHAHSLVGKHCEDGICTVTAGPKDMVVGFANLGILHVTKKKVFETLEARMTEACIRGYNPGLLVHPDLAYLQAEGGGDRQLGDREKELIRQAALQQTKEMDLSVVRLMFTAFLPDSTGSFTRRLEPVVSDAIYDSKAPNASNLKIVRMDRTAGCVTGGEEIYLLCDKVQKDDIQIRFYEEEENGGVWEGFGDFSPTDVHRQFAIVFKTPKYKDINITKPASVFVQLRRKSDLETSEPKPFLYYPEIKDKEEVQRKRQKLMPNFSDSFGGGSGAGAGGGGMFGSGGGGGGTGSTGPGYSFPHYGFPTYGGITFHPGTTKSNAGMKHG
UniProt Q04207: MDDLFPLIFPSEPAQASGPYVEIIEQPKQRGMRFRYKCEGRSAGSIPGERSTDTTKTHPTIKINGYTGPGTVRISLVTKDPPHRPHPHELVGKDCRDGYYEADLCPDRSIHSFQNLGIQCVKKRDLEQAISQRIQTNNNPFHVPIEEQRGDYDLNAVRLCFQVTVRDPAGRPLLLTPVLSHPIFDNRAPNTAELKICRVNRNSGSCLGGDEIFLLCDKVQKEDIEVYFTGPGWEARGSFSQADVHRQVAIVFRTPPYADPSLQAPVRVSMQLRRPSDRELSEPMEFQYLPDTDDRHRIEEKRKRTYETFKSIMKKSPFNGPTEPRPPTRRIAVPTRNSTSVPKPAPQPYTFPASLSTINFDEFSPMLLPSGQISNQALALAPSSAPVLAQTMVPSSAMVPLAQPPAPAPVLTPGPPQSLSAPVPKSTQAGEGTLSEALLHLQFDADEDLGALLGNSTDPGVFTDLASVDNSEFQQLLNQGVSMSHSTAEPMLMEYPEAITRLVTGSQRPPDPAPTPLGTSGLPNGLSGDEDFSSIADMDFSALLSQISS

Row | Substance | binding [1] | binding [2]
1 | NF-κB p50, human, endogenous in HeLa (from UniProt P19838 1-433) | binds | 
2 | NF-κB p65 (RELA), mouse, endogenous in MEFs (from UniProt Q04207 1-549) |  | binds
